Experimental data: patent EP1321467A2, “High affinity inhibitors for target validation and uses thereof” (Princeton University, priority 1999, dated 2000)
For some assays here: For at least one compound, name, drawing or mass did not settle the structure. Some entries share one result that the patent states for a list of compounds.

Protein sequences, listed by entry. Tags and fused reporters are not part of them. Residues count along the entry.
UniProt P06241, 1-534 isoform P06241-2: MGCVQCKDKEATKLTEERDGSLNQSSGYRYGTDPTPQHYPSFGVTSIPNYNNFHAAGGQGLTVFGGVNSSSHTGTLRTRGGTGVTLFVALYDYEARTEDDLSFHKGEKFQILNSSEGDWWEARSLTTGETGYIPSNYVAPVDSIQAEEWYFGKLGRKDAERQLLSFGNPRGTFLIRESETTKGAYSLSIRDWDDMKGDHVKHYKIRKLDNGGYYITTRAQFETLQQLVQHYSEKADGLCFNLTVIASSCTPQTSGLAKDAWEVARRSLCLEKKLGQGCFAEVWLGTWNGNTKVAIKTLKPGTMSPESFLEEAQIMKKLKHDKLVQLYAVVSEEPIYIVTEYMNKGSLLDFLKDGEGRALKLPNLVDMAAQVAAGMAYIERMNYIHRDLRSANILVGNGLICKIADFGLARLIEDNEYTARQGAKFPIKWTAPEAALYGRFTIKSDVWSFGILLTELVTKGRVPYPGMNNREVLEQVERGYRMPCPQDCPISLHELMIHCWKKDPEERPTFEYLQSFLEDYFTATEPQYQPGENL

Legend:
cdc28-as1 cells = assay: Cell cycle analysis, DNA content and morphology; assay type: cell-based, Saccharomyces cerevisiae
Method: DNA flow cytometry: Approximately 1x10^7 cells for each sample were fixed in 70% ethanol, resuspended in 50 mM Tris-HCl pH 8.0, briefly sonicated, digested with 2mg/ml RNase for 2 hours at 37°C, and resuspended in 0.2 ml protease solution (5 mg/ml pepsin. 0.5% concentrated HC1) and digested for 45 minutes at 37°C. DNA was stained with 1µM Sytox Green (Molecular Probes) in 50 mM Tris-HCl pH 7.5 and 20,000 cells from each sample were scanned with a FACScan FACS machine (Becton-Dickinson).
Thus, it appears possible to titrate the level of Cdc28-as1 activity in vivo, allowing the identification of cell cycle events that are differentially sensitive to decreases in the catalytic activity of Cdc28.
[…], initiation of budding and DNA synthesis were delayed about 30 to 60 minutes, while accumulation of the mitotic cyclin C1b2 was delayed 60 to 90 minutes. Cells went on to arrest with moderate C1b2 levels, highly hyperpolarized buds, and a G2/M DNA content, much like the arrest observed in asynchronous cells. […] Thus, cells treated with low concentrations of the inhibitor are slightly delayed during progression through early stages of the cell cycle, but eventually arrest due to a failure to assemble a mitotic spindle and enter mitosis.

WT Fyn = target: T1, WT Fyn (Homo sapiens, UniProt P06241); assay: In vitro kinase inhibition assay; assay type: biochemical
T1 construct: GST (N); made in house; host or cells: E. coli DH5a, pGEX-KT

Compound	cell cycle effect (cdc28-as1 cells; 50 nM)	cell cycle effect (cdc28-as1 cells; 500 nM)	cell cycle effect (cdc28-as1 cells; 5,000 nM)	cell cycle effect (cdc28-as1 cells; 5,000 nM, G1-synchronized cells)	inhibition of WT Fyn, in words (WT Fyn)
CC(C)(C)n1nc(Cc2cccc3ccccc23)c2c(N)ncnc21 [Compound 6h, 4-amino-1-(tert-butyl)-3-(1'-naphthylmethyl)pyrazolo[3,4-d]pyrimidine]	delay	arrest	non-uniform arrest that included unbudded G1 cells as well as large-budded G2/M cells	arrested with a IC DNA content and initially failed to bud	
CC(C)(C)n1nc(-c2ccccc2)c2c(N)ncnc21 [2 (Figure 14), 4-Amino-1-tert-butyl-3-phenylpyrazolo [3,4-d] pyrimidine]					highly potent (low nM) Fyn inhibitors
